# Assay results reported in article PMC7819943, “Rice protein-binding microarrays: a tool to detect cis-acting elements near promoter regions in rice”.
# Chains of the proteins cited; added tags and fusions are not shown.
# UniProt Q0JBA9, entry or part of it: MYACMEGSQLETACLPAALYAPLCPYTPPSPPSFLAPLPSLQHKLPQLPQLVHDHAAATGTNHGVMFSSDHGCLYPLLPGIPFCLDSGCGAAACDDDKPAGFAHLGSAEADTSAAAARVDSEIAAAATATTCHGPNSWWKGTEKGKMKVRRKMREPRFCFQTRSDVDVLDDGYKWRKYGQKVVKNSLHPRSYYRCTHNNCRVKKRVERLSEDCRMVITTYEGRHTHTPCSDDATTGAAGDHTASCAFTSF
# Some of the results follow.
# Biological target: OsWRKY34 (Oryza sativa, UniProt Q0JBA9 1-250)
# Test: protein-binding microarray (RPBM); PBS, 2% BSA, 51.3 ng/ul salmon testes DNA, 50 uM zinc acetate, 200 nM TF, 25 C, 1 h; high values mean tight binding
# Settings: protein: recombinant; tags: N-terminal polyhistidine and DsRed monomer fusion (pET32a); label: CyDye5-dUTP incorporated in the synthesized complementary strand; 3' TTTTT single-stranded linker to array surface; dsDNA, one strand shown
# Procedure, shortened: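 The binding signal is fluorescence intensity per array feature (arbitrary units). Readings came from an Axon 4000B scanner after a washed, 2% BSA-blocked, double-stranded custom Agilent array had been incubated for 1 h at 25 °C with 200 nM protein and 50 µM zinc acetate. The protein was a Ni–NTA-purified transcription factor fused N-terminally to polyhistidine and DsRed, expressed in E. coli BL21-CodonPlus.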
row,Sequence,binding signal
1,CTCTTTTTTTTTCGATTTGTTTGTGTGCATTTCGGCATTTCGGAGTCACCTAGTGCAG,8640 fluorescence intensity (a.u.)
2,CGCTTTCTATTCGGGCTTTGGCCTGCTAGTTTTATGGGCCCGGAGTCACCTAGTGCAG,10800 fluorescence intensity (a.u.)
3,AGCTCATGACCAGCGCGCACCGCCTTGTCAGCCTGTGTTTCGGAGTCACCTAGTGCAG,10100 fluorescence intensity (a.u.)
4,ATTTTTGGTTCAAGTTTTTTGCAGGGACTAGTTTCGAAATCGGAGTCACCTAGTGCAG,8040 fluorescence intensity (a.u.)
5,GTGGGTGGTTCTTGCTAGCACGCGCGGCGCGAGCGCCAAGCGGAGTCACCTAGTGCAG,9300 fluorescence intensity (a.u.)
6,TTTCTTTGTTGTCTCACTTTCCCTTTTTCCACTTCTTTTTCGGAGTCACCTAGTGCAG,11700 fluorescence intensity (a.u.)
7,GACCCTGACACTTCACTCTTGTGTTGACCAAACGGCTGATCGGAGTCACCTAGTGCAG,10500 fluorescence intensity (a.u.)
8,ATCTCGCACACCATTCCCATGCTCGAGCGAGTTCATCACACGGAGTCACCTAGTGCAG,10100 fluorescence intensity (a.u.)
9,CAGCACCAACACGAGCCCAACTCGACGCCTCTCTTCTCTTCGGAGTCACCTAGTGCAG,9620 fluorescence intensity (a.u.)
10,CCTTGTGTGGAATAGTAATGCTCGGTTGACTACGCCAGTCCGGAGTCACCTAGTGCAG,8940 fluorescence intensity (a.u.)
11,TTGAAAACCTGGCTACGCCACTGCGGTGAACATCTACCATCGGAGTCACCTAGTGCAG,8070 fluorescence intensity (a.u.)
12,CAACTGCTCTTCCTACGCGCGGTCATCGTCTGCTTCTTGTCGGAGTCACCTAGTGCAG,10000 fluorescence intensity (a.u.)
13,CTGTCACTTATCCTTGGCTTTCCTTGTGCGCCTGAGTATCCGGAGTCACCTAGTGCAG,8960 fluorescence intensity (a.u.)
14,GGATTTTCTCGCGCATACCATATCACACTACCACCCTTCTCGGAGTCACCTAGTGCAG,11400 fluorescence intensity (a.u.)
15,TCTGCCACTTTCCGCATGCTGTATCCACGTCACCTCCAATCGGAGTCACCTAGTGCAG,10600 fluorescence intensity (a.u.)
16,TTTCAACCTTTGTACTTCCTTTCCTGTAGGTATCTCCATGCGGAGTCACCTAGTGCAG,8060 fluorescence intensity (a.u.)
17,TATCTATAGCTCTCTGATCCATTGCCTCGTTTTTCTCTATCGGAGTCACCTAGTGCAG,12100 fluorescence intensity (a.u.)
18,CCCGCAGGCGGCGTCCACCACCACCACCACCTCGATCCGCCGGAGTCACCTAGTGCAG,8030 fluorescence intensity (a.u.)
19,GCTCTTGATCATCACGCCATCTCCTCCGGCCGAACTCACACGGAGTCACCTAGTGCAG,11000 fluorescence intensity (a.u.)
20,TGGGGTTGGTTTGGTTTGGAGTACATCGAGATTCGAGAGACGGAGTCACCTAGTGCAG,19900 fluorescence intensity (a.u.)
21,TTGCTCAATGCTTGTTCATTGTTTATGCCATTGTCTTCTCCGGAGTCACCTAGTGCAG,11300 fluorescence intensity (a.u.)

row,Sequence,binding signal
1,TGATCAAACTTAAAACAGTTTGACTTTGACTAAAGTCAAACGGAGTCACCTAGTGCAG,8260 fluorescence intensity (a.u.)
2,GGGTCGTCGTCATCGCCGTCTTCACTCTTCACGCCACACTCGGAGTCACCTAGTGCAG,10400 fluorescence intensity (a.u.)
3,TTGAGCCGGTTACTTCTTTCTCGTTTGCCTGTTGATACAACGGAGTCACCTAGTGCAG,9990 fluorescence intensity (a.u.)
4,CCTCTTCTTCTGCTCTGCTCTACTCGCGAAGCCAAAGCCTCGGAGTCACCTAGTGCAG,9400 fluorescence intensity (a.u.)
5,ACATCAAACGTCGATAGTATTCTGTTGTATTCTTGGTGGGCGGAGTCACCTAGTGCAG,8310 fluorescence intensity (a.u.)
6,CGGCAGTGTTCTTTTTTTTTTACACGCGTTTTTTTTTACACGGAGTCACCTAGTGCAG,10800 fluorescence intensity (a.u.)
7,AGTGTTAGTTTGTGATGTAATCTAGTCTAGGCCTGTGTATCGGAGTCACCTAGTGCAG,11500 fluorescence intensity (a.u.)
8,GCAACGGTTTGGCCCATCACTGATTTTTCTATGGGCCACACGGAGTCACCTAGTGCAG,9140 fluorescence intensity (a.u.)
9,CCTCTCCCCGCCGCCTCCACCTCCTCCGCCGCCACTGTGTCGGAGTCACCTAGTGCAG,8320 fluorescence intensity (a.u.)
10,AACCAGGCCATACTTGCATCCTTTGTCTGCTGGGCTGCCTCGGAGTCACCTAGTGCAG,8410 fluorescence intensity (a.u.)
11,ATGCCTTCTTACTCCCTTTTTGCTTTCAGCATTGGATACCCGGAGTCACCTAGTGCAG,8550 fluorescence intensity (a.u.)
12,GCTACTGGTGCCGGCCGCCGTCCTCCTGCTTCCGCCGCCGCGGAGTCACCTAGTGCAG,9560 fluorescence intensity (a.u.)
13,CCGTGCTCTGCTGCCGCCCTGGGACTCCTCTCACCTACTACGGAGTCACCTAGTGCAG,8050 fluorescence intensity (a.u.)
14,GGCATCAAGTTTTCTCTTATTTAAGTTGGCAATCGCTTATCGGAGTCACCTAGTGCAG,9560 fluorescence intensity (a.u.)
15,GTGTGGATGTGTATAGATTTTGTTTTACACGCTCGGCGTACGGAGTCACCTAGTGCAG,9070 fluorescence intensity (a.u.)
16,AGCATATTCCAAGCCACGACTTACGCCTTGTGGCTTTCGCCGGAGTCACCTAGTGCAG,8810 fluorescence intensity (a.u.)
17,CTATCACTTGGAAGTACTACTTATCAACATCAAACATTTCCGGAGTCACCTAGTGCAG,8300 fluorescence intensity (a.u.)
18,TGTGTGCGAAAGCTAGTTTTTTCAGTTGCATTTTTTTAACCGGAGTCACCTAGTGCAG,8840 fluorescence intensity (a.u.)
19,GTTCTCTCCAACTTGACTCAACATTAGTACACAATAGTATCGGAGTCACCTAGTGCAG,8960 fluorescence intensity (a.u.)
20,TTTTTTTCCTCCCTATTCGCTGTGTCATGCCTTATATATTCGGAGTCACCTAGTGCAG,8240 fluorescence intensity (a.u.)
21,TCCCTAAATATTTGACGCCGTTGACTTTTTTAAACATGTTCGGAGTCACCTAGTGCAG,26400 fluorescence intensity (a.u.)

# Quoted from the listing:
# binding signal, GGCATCAAGTTTTCTCTTATTTAAGTTGGCAATCGCTTATCGGAGTCACCTAGTGCAG reads 9560 fluorescence intensity (a.u.)
# binding signal, AACCAGGCCATACTTGCATCCTTTGTCTGCTGGGCTGCCTCGGAGTCACCTAGTGCAG reads 8410 fluorescence intensity (a.u.)
